Test results as given in the supplement of paper PMC6078165.
The reference is the same well before dosing, and untreated signal decays as well.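 Fibroblast labels denote human fibroblasts, mainly primary ones from uterus (C12385, HUF), lung (H6013), bone (Hs27A), adrenal (HADF) and skin (WS1), plus mammary HMF and breast cancer-associated Hs343T. Cancer cells are basal-like or mesenchymal-like triple-negative breast cancer lines. A hit is a response shift exceeding 3x replicate standard deviation. The tissue of the other fibroblasts is not given here.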

Tested on: Hs578T
Test: relative JC-1 red fluorescence (viability) vs pre-drug, coculture with fibroblast (fraction); higher = more viable cancer cells
Experimental: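 JC-1 labelled TNBC cells cocultured 1:1 (1,500 cells each) with CellTrace Violet stained primary or stromal fibroblasts in 384-well plates in FluoroBrite medium, treated with one of 42 anticancer drugs at 0.1, 1, 10 or 100 uM. JC-1 red fluorescence (mitochondrial integrity in cancer cells only) was read by plate reader every 8 h for 72 h. Values are normalised to each well's pre-drug value. The stock of one drug was tenfold lower, so its dose labels may be too high.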

CC(C)C[C@H](NC(=O)[C@H](Cc1ccccc1)NC(=O)c1cnccn1)B(O)O [Bortezomib]
relative JC-1 red fluorescence
Details	8 h	16 h	24 h	32 h	40 h	48 h	56 h	64 h	72 h
0.1 µM	0.8484	0.655	0.571	0.568	0.534	0.526	0.543	0.532	0.556
1 µM	0.906	0.652	0.534	0.52	0.49	0.475	0.478	0.457	0.462

relative JC-1 red fluorescence
Details	8 h	16 h	24 h	32 h	40 h	48 h	56 h	64 h	72 h
0.1 µM, coculture fibroblast: C12385	0.8	0.663	0.576	0.464	0.434	0.44	0.443	0.466	0.488
0.1 µM, coculture fibroblast: H6013	0.829	0.656	0.588	0.605	0.626	0.662	0.676	0.702	0.698
0.1 µM, coculture fibroblast: H6019	0.757	0.633	0.652	0.586	0.601	0.614	0.63	0.654	0.669
0.1 µM, coculture fibroblast: H6076	0.882	0.6726	0.604	0.623	0.622	0.655	0.672	0.703	0.737
0.1 µM, coculture fibroblast: H6231	0.8239	0.671	0.624	0.617	0.581	0.591	0.581	0.594	0.619
0.1 µM, coculture fibroblast: HADF	0.844	0.727	0.648	0.632	0.651	0.675	0.677	0.696	0.702
0.1 µM, coculture fibroblast: HCFa	0.808	0.634	0.572	0.547	0.5468	0.578	0.582	0.588	0.579
0.1 µM, coculture fibroblast: HCPF	0.8571	0.659	0.571	0.564	0.523	0.527	0.534	0.534	0.539
0.1 µM, coculture fibroblast: HHSteC	0.8379	0.693	0.63	0.618	0.625	0.618	0.633	0.634	0.629
0.1 µM, coculture fibroblast: HMF	0.8491	0.686	0.6	0.594	0.561	0.558	0.575	0.59	0.614
0.1 µM, coculture fibroblast: HPFa	0.885	0.745	0.701	0.696	0.722	0.735	0.737	0.754	0.745
0.1 µM, coculture fibroblast: HUF	0.8113	0.625	0.587	0.506	0.483	0.489	0.5	0.524	0.54
0.1 µM, coculture fibroblast: Hs27A	0.827	0.6823	0.589	0.565	0.554	0.58	0.572	0.587	0.573
0.1 µM, coculture fibroblast: Hs343T	0.8807	0.6668	0.549	0.549	0.509	0.513	0.519	0.534	0.57
0.1 µM, coculture fibroblast: WS1	0.784	0.555	0.523	0.426	0.414	0.443	0.453	0.487	0.512
1 µM, coculture fibroblast: C12385	0.787	0.624	0.496	0.409	0.382	0.365	0.365	0.377	0.39
1 µM, coculture fibroblast: H6013	0.837	0.645	0.55	0.553	0.543	0.551	0.547	0.551	0.538
1 µM, coculture fibroblast: H6019	0.74	0.552	0.519	0.467	0.473	0.485	0.493	0.513	0.514
1 µM, coculture fibroblast: H6076	0.924	0.684	0.486	0.468	0.45	0.459	0.473	0.485	0.502
1 µM, coculture fibroblast: H6231	0.8624	0.6472	0.481	0.509	0.4569	0.451	0.429	0.422	0.426
1 µM, coculture fibroblast: HADF	0.839	0.666	0.539	0.498	0.478	0.476	0.457	0.45	0.437
1 µM, coculture fibroblast: HCFa	0.799	0.589	0.482	0.465	0.443	0.442	0.428	0.419	0.398
1 µM, coculture fibroblast: HCPF	0.9102	0.7015	0.499	0.499	0.465	0.464	0.468	0.45	0.455
1 µM, coculture fibroblast: HHSteC	0.902	0.728	0.665	0.644	0.643	0.645	0.653	0.659	0.642
1 µM, coculture fibroblast: HMF	0.8724	0.646	0.477	0.473	0.432	0.428	0.411	0.411	0.419
1 µM, coculture fibroblast: HPFa	0.887	0.673	0.643	0.636	0.634	0.63	0.606	0.604	0.575
1 µM, coculture fibroblast: HUF	0.791	0.583	0.4827	0.408	0.379	0.366	0.3533	0.35316	0.3587
1 µM, coculture fibroblast: Hs27A	0.819	0.691	0.613	0.615	0.58	0.576	0.55	0.546	0.516
1 µM, coculture fibroblast: Hs343T	0.942	0.694	0.413	0.387	0.337	0.331	0.323	0.329	0.347
1 µM, coculture fibroblast: WS1	0.781	0.51907	0.487	0.393	0.374	0.3761	0.3695	0.389	0.399
